Reference: PubChem BioAssay AID1224827 (NIAID, 2016)
Test: 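Identify regulators of the macrophage TNF-alpha response to bacterial LPS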 (follow-up of hits). Cell system: RAW264.7 G9 mouse macrophage reporter clone. Reagent: single siRNA against mouse genes, 100 nM siRNA. Timing: siRNA for 2 days, then LPS about 16 h. Treatment: bacterial lipopolysaccharide (LPS), 10 ng/ml, cells fixed after overnight (about 16 h) stimulation. Read-out: 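Imaged nuclear TNF reporter intensity, background removed, scaled per plate and to non-targeting control wells, as z-scores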. Scale: TNF reporter z-score, mean: higher = stronger Tnf promoter reporter signal. Active means: 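Active siRNA: replicate-mean z-score of 2 or more, or -2 or less; no calls for control wells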.
Here is one part, drawn at random, of about 3,800 deposited reagents. About 2,200 of them (57%) were called active. 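Active means a strong reporter change in either direction; calls are per siRNA, not per gene; qiagen siRNAs gave weaker effects.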 A number with no mark means an inactive call. Reagents against one gene are numbered here. Further read-outs or replicates are left out here.

Gene,reagent,"TNF reporter z-score, mean"
A430093F15Rik (RIKEN cDNA A430093F15 gene),1,1.11
A430093F15Rik (RIKEN cDNA A430093F15 gene),2,-0.248
A430093F15Rik (RIKEN cDNA A430093F15 gene),3,-4.82 (active)
A430093F15Rik (RIKEN cDNA A430093F15 gene),4,1.38
A430093F15Rik (RIKEN cDNA A430093F15 gene),5,0.657
A430093F15Rik (RIKEN cDNA A430093F15 gene),6,0.439
Tmem18 (transmembrane protein 18),1,0.868
Tmem18 (transmembrane protein 18),2,-2.37 (active)
Tmem18 (transmembrane protein 18),3,-4.4 (active)
Tmem18 (transmembrane protein 18),4,1.35
Tmem18 (transmembrane protein 18),5,-0.745
Tmem18 (transmembrane protein 18),6,1.11
Stat4 (signal transducer and activator of transcription 4),1,0.3
Stat4 (signal transducer and activator of transcription 4),2,0.0637
Stat4 (signal transducer and activator of transcription 4),3,-3.7 (active)
Stat4 (signal transducer and activator of transcription 4),4,3.75 (active)
Stat4 (signal transducer and activator of transcription 4),5,1.49
Stat4 (signal transducer and activator of transcription 4),6,-0.739
Hhat (hedgehog acyltransferase),1,3.28 (active)
Hhat (hedgehog acyltransferase),2,-1.29
Hhat (hedgehog acyltransferase),3,-3.98 (active)
Hhat (hedgehog acyltransferase),4,2.69 (active)
Hhat (hedgehog acyltransferase),5,0.929
Hhat (hedgehog acyltransferase),6,-4.26 (active)
Nhlh1 (nescient helix loop helix 1),1,-2.66 (active)
Nhlh1 (nescient helix loop helix 1),2,-4.43 (active)
Nhlh1 (nescient helix loop helix 1),3,-4.75 (active)
Nhlh1 (nescient helix loop helix 1),4,4.89 (active)
Nhlh1 (nescient helix loop helix 1),5,2.47 (active)
Nhlh1 (nescient helix loop helix 1),6,-3.06 (active)
Zfp57 (zinc finger protein 57),1,1.7
Zfp57 (zinc finger protein 57),2,-0.548
Zfp57 (zinc finger protein 57),3,-1.58
Zfp57 (zinc finger protein 57),4,0.555
Zfp57 (zinc finger protein 57),5,-1.66
Zfp57 (zinc finger protein 57),6,-3.39 (active)
Cdh1 (cadherin 1),1,-3.82 (active)
Cdh1 (cadherin 1),2,-3.94 (active)
Cdh1 (cadherin 1),3,-5.05 (active)
Cdh1 (cadherin 1),4,-1.01
Cdh1 (cadherin 1),5,-0.429
Cdh1 (cadherin 1),6,-2.71 (active)
